Assay [1] concerns the target T1, GFP-NIP45 SLD2* (D394R) (human) (UniProt Q8NCF5).
T1 sequence: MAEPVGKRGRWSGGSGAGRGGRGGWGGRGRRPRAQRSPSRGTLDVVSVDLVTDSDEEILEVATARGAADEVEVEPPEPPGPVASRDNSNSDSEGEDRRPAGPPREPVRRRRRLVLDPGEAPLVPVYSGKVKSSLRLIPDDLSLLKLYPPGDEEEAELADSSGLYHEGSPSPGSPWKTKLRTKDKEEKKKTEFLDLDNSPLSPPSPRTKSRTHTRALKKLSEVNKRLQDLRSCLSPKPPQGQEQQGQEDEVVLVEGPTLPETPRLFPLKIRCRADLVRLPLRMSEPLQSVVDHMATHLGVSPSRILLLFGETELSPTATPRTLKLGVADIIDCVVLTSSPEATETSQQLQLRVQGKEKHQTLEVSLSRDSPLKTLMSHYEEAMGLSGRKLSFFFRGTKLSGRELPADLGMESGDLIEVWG
Kind of assay: affinity purification with mass spectrometry; GFP pulldowns from U2OS Flp-In T-REx NIP45-KO cells stably expressing GFP-NIP45 wt or SLD2*, LC-MS/MS, n = 4 biological replicates.

The chains behind the UniProt entries cited, without tags or fusion partners.
UniProt P63279: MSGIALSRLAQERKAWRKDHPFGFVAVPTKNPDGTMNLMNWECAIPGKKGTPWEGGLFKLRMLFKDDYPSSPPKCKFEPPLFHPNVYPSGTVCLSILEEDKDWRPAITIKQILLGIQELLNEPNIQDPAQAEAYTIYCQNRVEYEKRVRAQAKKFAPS

The target of assay [2] is T2, GFP-NIP45 WT (U2OS Flp-In T-REx NIP45-KO cells) (human) (UniProt Q8NCF5).
T2 sequence: T1 sequence with R394D
The description is as above.

Positions count from the first letter of the chain named. No constants are given. Whether binding was seen depends on the method and setting. In cells and extracts the contact can be indirect. These calls come from enrichment with a bait or labelling near it, and not all partners need be listed. For some assays here: No binding means not detected with the bait. Where a sequence is shown, tags or fusion partners need not be part of it.

Consider “SUMO E2 enzyme UBC9, endogenous (from UniProt P63279 1-158)”, for which the binding entry was “no binding” in assay [1] and “binds” in assay [2].

The record behind these values is paper PMC10497417.
